Reference: patent publication US20070086998A1

Target: lysozyme
Experiment: ELISA, antigen 10 µg/well

binding: no binding (tested: 100 ng/well)
B1: MS-GPC-8-27-10 (Fab) (Fab, V domains shown)
VH: QVQLKESGPALVKPTQTLTLTCTFSGFSLSTSGVGVGWIRQPPGKALEWLALIDWDDDKYYSTSLKTRLTISKDTSKNQVVLTMTNMDPVDTATYYCARSPRYRGAFDYWGQGTLVTVSS
VL: DIVLTQPPSVSGAPGQRVTISCSGSESNIGANYVNWYQQLPGTAPKLLIYDNNQRPSGVPDRFSGSKSGTSASLAITGLQSEDEADYYCQSYDMNVHVFGGGTKLTVLG

binding: no binding (tested: 100 ng/well)
B2: MS-GPC-8-27-41 (Fab) (Fab, V domains shown)
VH: B1 VH
VL: B1 VL with A31N, N35Q

binding: no binding (tested: 100 ng/well)
B3: MS-GPC-8-6-27 (Fab) (Fab, V domains shown)
VH: B1 VH
VL: B1 VL with E26D, N35T, M94Y, N95D, V96H, H97Y

binding: no binding (tested: 100 ng/well)
B4: MS-GPC-8-Fab (Fab, V domains shown)
VH: B1 VH
VL: B1 VL with E26S, A31S, N35S, N95P, V96Q, H97A

binding: no binding (tested: 100 ng/well)
B5: MS-GPC-8-6 (Fab) (Fab, V domains shown)
VH: B1 VH
VL: B1 VL with E26S, A31S, N35S, M94Y, N95D, V96H, H97Y

binding: no binding (tested: 100 ng/well)
B6: MS-GPC-8-10-57 (Fab) (Fab, V domains shown)
VH: B1 VH
VL: B1 VL with A31N, N35Q, M94L, N95I, V96R

binding: no binding (tested: 100 ng/well)
B7: MS-GPC-8-27-7 (Fab) (Fab, V domains shown)
VH: B1 VH
VL: B1 VL with A31N, N35G

binding: no binding (tested: 100 ng/well)
B8: MS-GPC-8-6-47 (Fab) (Fab, V domains shown)
VH: B1 VH
VL: B1 VL with A31S, N35S, M94Y, N95D, V96H, H97Y

binding: no binding (tested: 100 ng/well)
B9: MS-GPC-8-6-13 (Fab) (Fab, V domains shown)
VH: B1 VH
VL: B1 VL with N35T, M94Y, N95D, V96H, H97Y

Changes are numbered by the printed parent chain. These are yes or no findings as the source states them, for the method shown. Each block holds one binder with its values, some of them ahead of it.
